The record followed here is PMC4493597.

By UniProt entry, the sequences of proteins in these tests, tags left out. Where a name states a change or a piece, a line headed by the entry shows the natural chain unless it says otherwise.
UniProt Q96RK4: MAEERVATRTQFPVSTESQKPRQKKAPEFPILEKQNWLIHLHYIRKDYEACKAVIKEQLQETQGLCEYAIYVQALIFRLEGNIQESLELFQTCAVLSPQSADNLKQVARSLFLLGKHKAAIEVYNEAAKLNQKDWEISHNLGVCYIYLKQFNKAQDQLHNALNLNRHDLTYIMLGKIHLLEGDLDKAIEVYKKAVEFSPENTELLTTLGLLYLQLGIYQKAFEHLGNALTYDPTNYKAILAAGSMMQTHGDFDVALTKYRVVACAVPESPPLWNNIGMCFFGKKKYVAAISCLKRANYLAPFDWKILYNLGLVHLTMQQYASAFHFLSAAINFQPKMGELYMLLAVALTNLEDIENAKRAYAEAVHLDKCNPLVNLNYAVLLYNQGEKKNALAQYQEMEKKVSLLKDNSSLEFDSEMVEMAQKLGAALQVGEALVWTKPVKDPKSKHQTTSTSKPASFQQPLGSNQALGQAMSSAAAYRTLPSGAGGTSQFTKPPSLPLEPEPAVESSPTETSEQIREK

The target in this assay is Flag-tagged BBS4 A364E mutant (human) (UniProt Q96RK4). Nature of the assay: co-IP; HEK293T co-transfected with Myc-BBS5 and Flag-BBS4; lysate in IP buffer (20 mM Hepes-KOH pH 7.2, 150 mM NaCl, 0.5% NP-40) precipitated with anti-Flag (M2), blot with anti-Myc.

These are yes or no findings as the source states them, for the method shown. In cells and extracts the contact can be indirect. Binding calls can cover weak binding; strength is not graded here. Sequences can lack the tags named with a protein.

B1: Myc-tagged BBS5 (protein, UniProt Q8N3I7 1-341)
chain: MSVLDALWEDRDVRFDLSAQQMKTRPGEVLIDCLDSIEDTKGNNGDRGRLLVTNLRILWHSLALSRVNVSVGYNCILNITTRTANSKLRGQTEALYILTKCNSTRFEFIFTNLVPGSPRLFTSVMAVHRAYETSKMYRDFKLRSALIQNKQLRLLPQEHVYDKINGVWNLSSDQGNLGTFFITNVRIVWHANMNDSFNVSIPYLQIRSIKIRDSKFGLALVIESSQQSGGYVLGFKIDPVEKLQESVKEINSLHKVYSASPIFGVDYEMEEKPQPLEALTVEQIQDDVEIDSDGHTDAFVAYFADGNKQQDREPVFSEELGLAIEKLKDGFTLQGLWEVMS
B1: the binding entry is on record as “binds”.
